Source: the supplement of paper PMC9233669
This sample is rich in variants without activity.

Tests used:
[1] = test system: biotinyl-Phe-oxazolone; assay: self-aminoacylation, catalytic enhancement (BFO) (fold over background); higher = more active; k-Seq, kA / k0A0; sequences stand for … in GGGAAUGGAUCCACAUCUACGAAUUC…UUCACUGCAGACUUGACGAAGCUG
Outline: (§1)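 Each biotinyl-aminoacyl-oxazolone, at 2–1250 μM, was incubated with mutagenized RNA pools (0.43 μM) carrying a 21-nt variable region. The 50 μL reactions contained HEPES/NaCl/KCl/MgCl2/CaCl2 buffer with 5% acetonitrile at pH 6.9–7.0 and ran for 90 minutes at room temperature. After streptavidin capture, RNA was measured by qPCR in triplicate and by Illumina sequencing, and catalytic enhancement was calculated as median kA over the uncatalyzed rate from a pseudo-first-order fit of per-sequence fraction reacted.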

[2] = test system: biotinyl-Trp-oxazolone; assay: self-aminoacylation, catalytic enhancement (BWO) (fold over background); higher = more active; k-Seq, kA / k0A0; sequences stand for … in GGGAAUGGAUCCACAUCUACGAAUUC…UUCACUGCAGACUUGACGAAGCUG
Outline: as §1

[3] = test system: biotinyl-Met-oxazolone; assay: self-aminoacylation, catalytic enhancement (BMO) (fold over background); higher = more active; k-Seq, kA / k0A0; sequences stand for … in GGGAAUGGAUCCACAUCUACGAAUUC…UUCACUGCAGACUUGACGAAGCUG
Outline: as §1

[4] = test system: biotinyl-Val-oxazolone; assay: self-aminoacylation, catalytic enhancement (BVO) (fold over background); higher = more active; k-Seq, kA / k0A0; sequences stand for … in GGGAAUGGAUCCACAUCUACGAAUUC…UUCACUGCAGACUUGACGAAGCUG
Outline: as §1

[5] = test system: biotinyl-Ile-oxazolone; assay: self-aminoacylation, catalytic enhancement (BIO) (fold over background); higher = more active; k-Seq, kA / k0A0; sequences stand for … in GGGAAUGGAUCCACAUCUACGAAUUC…UUCACUGCAGACUUGACGAAGCUG
Outline: as §1

[6] = test system: biotinyl-Leu-oxazolone; assay: self-aminoacylation, catalytic enhancement (BLO) (fold over background); higher = more active; k-Seq, kA / k0A0; sequences stand for … in GGGAAUGGAUCCACAUCUACGAAUUC…UUCACUGCAGACUUGACGAAGCUG
Outline: as §1

Sequence	self-aminoacylation [1]	self-aminoacylation [2]	self-aminoacylation [3]	self-aminoacylation [4]	self-aminoacylation [5]	self-aminoacylation [6]
AUUACCCUGGUCUUCGAGUGC [Fam2.1 aminoacylation ribozyme variant]	0.594	1.25	0.984	1.28	1.08	1.37
CUACUUCAAACCAUCGGUCUU [Fam1A.1 aminoacylation ribozyme variant]	1.03	0.927	1.14	1.08	1.25	0.838
AUUUACCUAGGUCAUCAGGUG [Fam2.2 aminoacylation ribozyme variant]	0.951	1.23	1.58	1.31	1.29	1.47
AUUACCCUGGUCAUCGACCGA [Fam2.1 aminoacylation ribozyme variant]	1.14	1.36	1.08	1.49	1.42	1.89
CUACCUCAAACAAUCGGUCGG [Fam1A.1 aminoacylation ribozyme variant]	1.56	1.78	1.5	1.25	1.28	1.55
CUACACUACAAGCAAUCGGUC [Fam1B.1 aminoacylation ribozyme variant]	1.22	0.686	0.547	0.738	0.7	0.616
AAGUUUGCUAAUAGUCGAAGG [Fam3.1 aminoacylation ribozyme variant]	1.93	1.07	1.31	1.02	1.48	1.04
AGGUUUGCUAAUAGUGGCAAG [Fam3.1 aminoacylation ribozyme variant]	0.676	0.69	0.726	0.635	0.65	0.646
CUACUUCAAACAAUAGCUCUG [Fam1A.1 aminoacylation ribozyme variant]	0.637	0.36	0.482	0.584	0.676	0.515
AAGUUUGCUAAUGGUCGCAAG [Fam3.1 aminoacylation ribozyme variant]	0.985	0.702	0.587	0.675	0.632	0.569
AAGUUUGCCAACAGUCGCAAG [Fam3.1 aminoacylation ribozyme variant]	1.33	1.63	1.15	1.13	1.52	1.38
AUUCACCUAGCUCAUCGGGAG [Fam2.2 aminoacylation ribozyme variant]	0.656	0.858	0.989	1.08	1.16	1.32
AAGUUUGCUAAAAGUCGCCAG [Fam3.1 aminoacylation ribozyme variant]	1.16	2.25	1.72	1.16	1.49	1.51
CUACGGCAAACAAUCGGUCUG [Fam1A.1 aminoacylation ribozyme variant]	0.725	0.61	0.594	0.871	0.664	0.754
CUAUUUCAAACAAUCGGUAUG [Fam1A.1 aminoacylation ribozyme variant]	1.62	0.893	0.727	0.559	0.649	0.624
AAGUUUGCUAGUGGUCGCAAG [Fam3.1 aminoacylation ribozyme variant]	1.52	1.35	1.33	0.761	0.941	0.993
CUACUUCAAACAAUCGGACCG [Fam1A.1 aminoacylation ribozyme variant]	1.35	0.753	0.683	0.839	0.711	0.612
CUACUUCGAACAAUCUGUCUG [Fam1A.1 aminoacylation ribozyme variant]	0.413	0.337	0.51	0.576	0.539	0.576
AUUCGCGUAGGUCAUCGGGUG [Fam2.2 aminoacylation ribozyme variant]	57.5	7.24	8.32	4.87	5.25	8.56
AAGUUUGCUAAUAGACGUAAG [Fam3.1 aminoacylation ribozyme variant]	0.615	0.684	0.438	0.635	0.611	0.631
AUUCACCUAGGUCAUUGGGUA [Fam2.2 aminoacylation ribozyme variant]	1.45	1.38	1.72	1.47	1.56	1.83

Sequence	self-aminoacylation [1]	self-aminoacylation [2]	self-aminoacylation [3]	self-aminoacylation [4]	self-aminoacylation [5]	self-aminoacylation [6]
AAGUUUGCUAGUAGUCUCAAG [Fam3.1 aminoacylation ribozyme variant]	1.19	0.983	0.945	0.939	1.04	0.721
CUACUUCAAACAAUGGGUCUG [Fam1A.1 aminoacylation ribozyme variant]	0.804	0.617	0.823	0.817	0.886	0.807
CUACGUCAAACAAUCGGUCCG [Fam1A.1 aminoacylation ribozyme variant]	0.649	1.03	1.53	1.33	1	1.56
CUACUUCAAACAAUGGUUCUG [Fam1A.1 aminoacylation ribozyme variant]	0.557	0.509	0.514	0.643	0.653	0.618
AAAUUUGCUAAUAGACGCAAG [Fam3.1 aminoacylation ribozyme variant]	1.33	0.793	0.766	1.08	0.953	0.838
AUUCCCCUAGGUCAUUGGGUG [Fam2.2 aminoacylation ribozyme variant]	92.5	11.8	10.3	7.95	7.23	15.6
CUACUUAAAACAAUCGAUCUG [Fam1A.1 aminoacylation ribozyme variant]	0.806	0.79	0.737	0.844	0.761	0.536
AAGUCUGCUAAUACUCGCAAG [Fam3.1 aminoacylation ribozyme variant]	0.977	0.987	0.838	0.931	0.775	0.835
AAGUCUGCUAAUAAUCGCAAG [Fam3.1 aminoacylation ribozyme variant]	1.49	1.08	0.9	0.789	0.782	0.869
CCACACAUAAAGCAAUCGGUC [Fam1B.1 aminoacylation ribozyme variant]	0.889	0.747	0.868	0.888	1.02	0.745
AAGUUUGGUAAUAGUCGCAAU [Fam3.1 aminoacylation ribozyme variant]	3.13	2.14	1.65	1.62	2.02	1.8
AUUACCCUGAUCAUCGAGUGA [Fam2.1 aminoacylation ribozyme variant]	21.8	9.57	7.96	4.15	3.8	7.82
CCACACUUCAAGCGGUCGGUC [Fam1B.1 aminoacylation ribozyme variant]	1.43	0.788	1.02	1.14	1.07	0.919
CUACUUCAAGCAAUCUGUCUG [Fam1A.1 aminoacylation ribozyme variant]	1.44	0.801	0.548	0.813	0.771	0.536
CCACUUCAUACAAUCGGUCUG [Fam1A.1 aminoacylation ribozyme variant]	0.91	0.816	0.77	0.995	0.904	0.847
CCACUCUACAAGCAAUCGGUC [Fam1B.1 aminoacylation ribozyme variant]	0.779	0.709	0.822	1.1	1.05	0.957
AUUACCCUGGUCGUCGAGAGA [Fam2.1 aminoacylation ribozyme variant]	0.37	0.797	0.639	0.777	0.762	0.603
CCACACUUCAAGGAAUCGGAC [Fam1B.1 aminoacylation ribozyme variant]	0.997	0.8	1	0.878	1	0.932
CCACACUUCGAGCAAUCGGUU [Fam1B.1 aminoacylation ribozyme variant]	0.768	1.65	1.83	1.63	1.41	1.1
AUUACCCUGAUCCUCGAGUGA [Fam2.1 aminoacylation ribozyme variant]	8.63	3.91	3.7	2.52	2.35	3.73
CUACCUCAAACAGUCGGUCUG [Fam1A.1 aminoacylation ribozyme variant]	0.484	0.868	1.06	1.03	0.922	0.81
